Laboratory results reported in PubChem BioAssay AID493014 (National Center for Advancing Translational Sciences (NCATS), 2011).
Some of the results follow. Shown are side measurements of this screen, not its main read-out; they come without a call. Most of these compounds were active or inconclusive in the main read-out, so they are no random draw. The note in brackets gives the kind of curve behind each potency; many fits are weak.

Experiment: qHTS Assay to Find Inhibitors of Chronic Active B-Cell Receptor Signaling
Conditions: ABC-DLBCL IkBa-CBG/CBR reporter, luminescence ratio (green luciferase fused to IkBa over red control in TMD8 lymphoma cells), 4 h
Outline: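 Doxycycline induced both beetle luciferases in TMD8 lymphoma cells; IKK-driven degradation limits the IkappaBalpha-fused green signal, while red luminescence normalises for cell number and nonspecific effects. Compounds tested up to 46 uM, 4 hrs.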

[1] = measured here: CBR red luminescence, cell number

SMILES | AC50 [1] | AC50 (measured here: IkBa-CBG green luminescence)
Cc1ccc(Cl)cc1NC(=O)C1CC1c1ccccc1 (stereo unspecified) | 11.2 µM [rising, partial curve, poor fit] | 
O=C(Nc1ccc(-c2cnco2)cc1)c1ccc(F)cc1F | 12.6 µM [falling, partial curve] | 
CCOc1ccc(-c2nnc(-c3ccccc3)o2)cc1 | 10.3 µM [falling, partial curve, poor fit] | 
O=C(COc1ccc(Br)cc1Br)NC1CCCC1 | 0.562 µM [rising, full curve, poor fit] | 
COc1cccc(OCC(=O)NC2CC(=O)N(c3cccc(OC)c3)C2)c1 (stereo unspecified) | 2.82 µM [rising, full curve, poor fit] | 
COc1cccc2cc(C(=O)CS(=O)(=O)c3ccc(C)cc3)c(=O)oc12 | 1.26 µM [rising, full curve, poor fit] | 
Cc1ccc2nc(NC(=O)C3CCCN(S(=O)(=O)c4cnc[nH]4)C3)sc2c1 (stereo unspecified) | 6.51 µM [falling, partial curve] | 
Cc1ccccc1N(C(=O)c1csnn1)C(C(=O)NC(C)(C)C)c1ccncc1 (stereo unspecified) | 6.31 µM [rising, single point] | 
Oc1ccccc1C1CCCCC1c1ccccc1 (stereo unspecified) | 15.8 µM [rising, partial curve, poor fit] | 
Cc1ccc2nc(N(CCCN(C)C)C(=O)c3ccc4ncsc4c3)sc2c1 | 20 µM [falling, partial curve, poor fit] | 
O=C(O)c1ccc(N/N=C/c2cn(Cc3ccccc3F)c3ccccc23)cc1 |  | 0.631 µM [rising, full curve, poor fit]
COc1ccccc1NC1=C(Cl)C(=O)OC1OC(=O)c1ccco1 (stereo unspecified) | 11.2 µM [falling, partial curve, poor fit] | 
CCOC(=O)c1c(C)n(C)c2cc(CN(C)C)c(O)c(S(=O)(=O)c3ccccc3)c12 | 35.5 µM [falling, single point] | 
Cc1ccc(C2NC(=NCc3ccccc3)Nc3nc(C)cc(=O)n32)cc1 (stereo unspecified) | 10 µM [falling, partial curve] | 
CCOc1ccc(/C=N/NC(=O)Nc2ccccc2)cc1 | 1.58 µM [rising, partial curve, poor fit] | 
Cc1ccc(C(=O)CN(C(=O)c2ccc(Cl)c(Cl)c2)N2C(=O)C3CCCCC3C2=O)cc1C (stereo unspecified) | 4.11 µM [rising, partial curve, poor fit] | 
CS(=O)(=O)N1CCN(C(=O)c2ccc(-c3ccccc3)cc2)CC1 | 4.11 µM [falling, full curve] | 
Cc1ccc(NC(=O)CSC2=NCCN2)cc1 | 20.6 µM [rising, partial curve] | 
O=C(Cc1cccs1)Nc1ccc(-c2nc3ccccc3[nH]2)cc1 | 7.94 µM [falling, partial curve, poor fit] | 
CCC(=O)Nc1nnc(Sc2ccc(N(C)C)cc2)s1 | 2.82 µM [rising, full curve] | 
CCC1=C(OC(=O)N(CC)CC)N2C(=O)OC(=NCCc3c[nH]c4ccccc34)[C@]2(C)[C@H]2C1=CC[C@H]1C(=O)N(CC(=O)OC)C(=O)[C@H]12 | 31.6 µM [falling, single point] | 

An excerpt from above in order of number of heavy atoms, low to high.
SMILES | AC50 [1] | AC50 (measured here: IkBa-CBG green luminescence)
Cc1ccc(Cl)cc1NC(=O)C1CC1c1ccccc1 (stereo unspecified) | 11.2 µM [rising, partial curve, poor fit] | 
CCOc1ccc(/C=N/NC(=O)Nc2ccccc2)cc1 | 1.58 µM [rising, partial curve, poor fit] | 
CS(=O)(=O)N1CCN(C(=O)c2ccc(-c3ccccc3)cc2)CC1 | 4.11 µM [falling, full curve] | 
Cc1ccc(C2NC(=NCc3ccccc3)Nc3nc(C)cc(=O)n32)cc1 (stereo unspecified) | 10 µM [falling, partial curve] | 
Cc1ccc2nc(N(CCCN(C)C)C(=O)c3ccc4ncsc4c3)sc2c1 | 20 µM [falling, partial curve, poor fit] | 
Cc1ccccc1N(C(=O)c1csnn1)C(C(=O)NC(C)(C)C)c1ccncc1 (stereo unspecified) | 6.31 µM [rising, single point] | 
CCOC(=O)c1c(C)n(C)c2cc(CN(C)C)c(O)c(S(=O)(=O)c3ccccc3)c12 | 35.5 µM [falling, single point] | 
Cc1ccc(C(=O)CN(C(=O)c2ccc(Cl)c(Cl)c2)N2C(=O)C3CCCCC3C2=O)cc1C (stereo unspecified) | 4.11 µM [rising, partial curve, poor fit] | 

(further entries)

SMILES | AC50 [1] | AC50 (measured here: IkBa-CBG green luminescence)
COC(=O)c1sccc1-c1ccc(C(=O)Nc2cccnc2)o1 | 1.26 µM [falling, full curve, poor fit] | 
O=C(CCc1nnc(-c2ccc(-c3ccccc3)cc2)o1)NCCc1ccccn1 | 11.2 µM [falling, partial curve, poor fit] | 
NS(=O)(=O)c1ccc(CCNC(=O)c2ccccc2Cc2ccccc2)cc1 | 10 µM [falling, partial curve, poor fit] | 
CC(=O)n1cc(/C=N/NC(=O)c2cccc(O)c2)c2ccccc21 | 11.2 µM [falling, partial curve, poor fit] | 
O=C1N=c2ccccc2=C1c1sc(=S)n(-c2ccc(O)cc2)c1O | 20 µM [falling, single point] | 
COC(=O)CSc1nc(C)c2c(n1)CCCC2 | 11.2 µM [rising, single point] | 
COc1cc(OC)cc(C(=O)Nc2ccc3nc4n(c(=O)c3c2)CCCCC4)c1 | 3.98 µM [falling, partial curve] | 
COc1cccc(/C=N/NC(=O)CN(CCc2ccccc2)S(=O)(=O)c2ccc(NC(C)=O)cc2)c1 | 1.3 µM [rising, partial curve, poor fit] | 
Fc1ccccc1COc1ccc(Br)cc1CNCC1CCCO1 (stereo unspecified) | 25.1 µM [falling, single point] | 
O=C(NCc1ccccc1)C(c1cccnc1)N(C(=O)c1ccccn1)c1cccc(F)c1 (stereo unspecified) | 7.94 µM [rising, partial curve, poor fit] | 
Cc1cc(N)n(-c2ccc(C(=O)O)cc2)n1 | 7.08 µM [falling, full curve, poor fit] | 
COC(=O)C1=C(C)N(Cc2cccnc2)C(=O)/C1=C\c1sccc1C | 35.5 µM [falling, single point] | 
O=C1CCc2cc(NS(=O)(=O)c3ccccc3)cc3c2N1CCC3 | 9.2 µM [falling, partial curve, poor fit] | 
Cc1ccc(NC(=O)C2CCN(c3ncnc4c3nc3n4CCCCC3)CC2)cc1Cl | 12.6 µM [rising, single point] | 
Cc1ccc(NC(=O)COC(=O)c2cc(=O)c3ccccc3o2)c(Br)c1 | 0.164 µM [rising, full curve, poor fit] | 
Cc1ccc(NNC(=O)c2c(C)noc2C)cc1Cl | 35.5 µM [falling, single point] | 
C/C(=N\NC(=O)c1ccccc1O)c1cccc(NC(=O)c2ccccc2)c1 | 5.01 µM [falling, partial curve] | 
CC(C)c1ccc(OCc2ccc(C(=O)O)o2)cc1 | 11.2 µM [falling, partial curve] | 
Cn1c(=O)c2c(nc(Br)n2CCSc2nc3ccccc3o2)n(C)c1=O | 35.5 µM [falling, partial curve, poor fit] | 
C/C(=C\c1ccc(C)o1)C(=O)c1c(C)cc(C)[nH]c1=O | 35.5 µM [falling, single point] | 
